# Reference: the supplement of paper PMC10735217
# This is one part of the list. This data set is noisy: repeats of one test often differ as much as different tests do.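 In a drug-repurposing library screen, luminescence reads luciferase driven by eight TEAD-binding elements, stably integrated into human kidney-derived cells. Compounds scoring over five robust Z scores above the plate mean are called hits.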
# Tested on: HEK293A TEAD-LUC reporter
# Experiment: TEAD-luciferase reporter activity (YAP activation), robust Z score vs plate; higher = stronger YAP/TEAD activation
# Conditions: 24 h
SMILES,TEAD-luciferase reporter activity (compound concentration: 200 nM),TEAD-luciferase reporter activity (compound concentration: 2 uM),TEAD-luciferase reporter activity (compound concentration: 10 uM)
CS(=O)(=O)Oc1ccc2c(NC(N)=O)c(C(=O)c3ccc(Cl)cc3Cl)oc2c1 [Lirimilast],inactive: -0.441,inactive: -0.945,active: 5.44
C=C1/C(=C\C=C2/CCC[C@]3(C)[C@@H]([C@H](C)/C=C/[C@H](C)C(C)C)CC[C@@H]23)C[C@@H](O)C[C@@H]1O [Doxercalciferol],inactive: 1.06,inactive: 0.612,inactive: 3.14
COc1cccc(C(=O)Nc2ccc3c(c2)CCN(C(=O)Oc2ccccc2)C3)c1-c1ccc(C(F)(F)F)cc1,inactive: -1.27,inactive: -1.19,inactive: 0.772
"CCC1C(=O)OCC1Cc1cncn1C (configuration not stated) [pilocarpine, Alza]",inactive: -1.54,inactive: 0.321,inactive: 0.361
CNC(=S)C1(c2ccccn2)CCCS1 (configuration not stated) [Picartamide],inactive: -0.837,inactive: -1.65,inactive: -1.13
CC(C)/N=C/Nc1ccc(-c2c[nH]cn2)cc1,inactive: 1.68,inactive: -0.198,inactive: -1.29
COc1ccccc1OCCNCC(O)c1ccc(C)c(S(N)(=O)=O)c1 (configuration not stated),inactive: 2.15,inactive: -1.04,inactive: -0.87
C[N+](C)(C)CCOC(N)=O,inactive: -2.05,,inactive: 3.24
C[N+](C)(C)CCOC(N)=O [Carbachol],,inactive: -0.22,
COc1cccc2c1ccc1nc3cccc(C(=O)N[C@@H](C)CN(C)C)c3nc12,inactive: -0.168,inactive: 0.0342,inactive: 1.49
CC(C)(C)C(=O)Oc1ccc(S(=O)(=O)Nc2ccccc2C(=O)NCC(=O)O)cc1 [sivelestat sodium hydrate],inactive: -1.64,inactive: 4.17,inactive: -0.304
O=C(O)[C@@H]1CCCN(CCC=C2c3ccccc3CCc3ccccc32)C1,inactive: -1.06,inactive: -0.993,inactive: -0.401
CCCC(=O)c1c(O)cc(OC)c(C)c1O,inactive: 0.0847,inactive: -0.788,inactive: -0.755
C[C@@](O)(C(=O)Nc1ccc(C(=O)c2ccccc2)cc1)C(F)(F)F,inactive: 0.904,inactive: 2.08,inactive: -0.0137
CCNC(=O)[C@@H]1CCCN1C(=O)[C@H](CCCNC(=N)N)NC(=O)[C@@H](NC(=O)[C@H](NC(=O)[C@H](Cc1ccc(O)cc1)NC(=O)C(CO)NC(=O)[C@H](Cc1c[nH]c2ccccc12)NC(=O)[C@H](Cc1c[nH]cn1)NC(=O)C1CCC(=O)N1)C(C)C)C(C)C (some centres not stated) [analog of LEUPROLIDE ACETATE],inactive: -1.5,inactive: -0.297,inactive: 0.487
O=C(NCCN1CCOCC1)c1ccc(Cl)cc1 [moclobemide],,inactive: 0.0964,
O=C(NCCN1CCOCC1)c1ccc(Cl)cc1,inactive: 0.109,,inactive: 1.49
CCCCC(=O)c1ccccc1C(=O)c1ccc2[nH]c(NC(=O)OC)nc2c1,inactive: -1.41,inactive: -0.465,inactive: 1.62
Cc1ccc2c(Br)cc(Br)c(OC(=O)c3ccc(C#N)cc3)c2n1,inactive: -0.241,inactive: -2.72,inactive: 0.972
COCCOC(=O)C1=C(C)NC(C)=C(C(=O)OC(C)C)C1c1cccc(C#N)c1Cl (configuration not stated),inactive: -1.04,inactive: -1.26,inactive: 0.849

SMILES,TEAD-luciferase reporter activity (compound concentration: 200 nM),TEAD-luciferase reporter activity (compound concentration: 2 uM),TEAD-luciferase reporter activity (compound concentration: 10 uM)
COc1cccc(-c2ccc(CN3CCCC(NC(=O)c4ccc(C)cc4)C3)cc2)c1 (configuration not stated),active: 10.4,,inactive: -1.34
Cc1cc(Cl)cc2c1N(Cc1cccc(C(F)(F)F)c1)C(=O)C21NC(=O)NC1=O (configuration not stated),inactive: 0.77,inactive: -1.2,inactive: 3.7
Clc1ccc2c(c1)CCc1cccnc1C2=C1CCNCC1,inactive: -2.67,,inactive: -2.28
Clc1ccc2c(c1)CCc1cccnc1C2=C1CCNCC1 [desloratadine],,inactive: -1.85,
CCN(CC)CCNC(=O)COc1ccc(Cl)cc1 [Clofexamide],inactive: -1.4,,inactive: 2.37
CCN(CC)CCNC(=O)COc1ccc(Cl)cc1,,inactive: -0.613,
CC[C@H](NC(=O)[C@H](CS(=O)(=O)CC1CC1)N[C@@H](c1ccc(F)cc1)C(F)(F)F)C(=O)C(=O)NC1CC1,inactive: 3.07,inactive: -1.58,inactive: -0.266
CC(=O)Nc1ccc(CC(=O)O)cc1 [Actarit],,inactive: 1.21,
CC(=O)Nc1ccc(CC(=O)O)cc1,inactive: 1.84,,inactive: -0.765
CCCC12CCC(C(=O)O)(CC1)CC2,inactive: -1.2,inactive: 1.02,inactive: 1.6
N#Cc1ccc(N2N=C3c4ccc(C(=O)O)cc4CC[C@@H]3[C@@H]2C2CCCC2)cc1Cl,inactive: -1.32,inactive: -0.152,inactive: 0.472
COc1ccccc1CCC(C)(C)NCC(O)c1ccc(O)cc1 (configuration not stated),inactive: 0.179,inactive: 0.221,inactive: 0.269
COc1c(N2CCC/C(=C(/F)CN)C2)c(F)cc2c(=O)c(C(=O)O)cn(C3CC3)c12,inactive: -1.85,inactive: -2.15,inactive: 1.17
COc1c(O)cc2c(c1O)C1OC(CO)C(O)C(O)C1OC2=O (configuration not stated),inactive: -1.11,inactive: -0.226,inactive: -0.0338
CS(=O)(=O)Nc1cc2c(cc1Oc1ccc(F)cc1F)C(=O)CC2,inactive: -0.118,inactive: -1.54,inactive: -0.762
O=[N+]([O-])c1ccc(N=C=S)cc1,inactive: -0.624,inactive: 1.48,inactive: -0.675
CN1CCc2c(c3ccccc3n2Cc2ccccc2)C1,inactive: 1.88,inactive: 1.03,inactive: 1.96
CC(=O)n1cc(F)c(=O)n(C(=O)c2ccccc2C)c1=O,inactive: 2.47,inactive: -0.253,inactive: 2.03
Cc1cc2ncc(C(=O)NCC(C)(C)NCC(=O)N3CCC[C@H]3C#N)cn2n1 [Anagliptin],inactive: -0.692,inactive: -0.341,inactive: -0.623
C=C1CC[C@H]2C(C)(CCC(O)[C@@]2(C)CO)[C@@H]1C/C=C1\C(=O)OCC1O (some centres not stated) [Andrographolide],inactive: -0.366,inactive: -1.66,inactive: -1.22

# Single records, as listed above. Order of values: TEAD-luciferase reporter activity (compound concentration: 200 nM) | TEAD-luciferase reporter activity (compound concentration: 2 uM) | TEAD-luciferase reporter activity (compound concentration: 10 uM)
# N#Cc1ccc(N2N=C3c4ccc(C(=O)O)cc4CC[C@@H]3[C@@H]2C2CCCC2)cc1Cl is listed as inactive: -1.32 | inactive: -0.152 | inactive: 0.472
# CC(C)(C)C(=O)Oc1ccc(S(=O)(=O)Nc2ccccc2C(=O)NCC(=O)O)cc1 [sivelestat sodium hydrate] is listed as inactive: -1.64 | inactive: 4.17 | inactive: -0.304

# Following part

SMILES,TEAD-luciferase reporter activity (compound concentration: 200 nM),TEAD-luciferase reporter activity (compound concentration: 2 uM),TEAD-luciferase reporter activity (compound concentration: 10 uM)
O=C(/C=C/c1cccnc1)NCCCCC1CCN(C(=O)c2ccccc2)CC1 [Daporinad],inactive: 1.37,inactive: 0.985,inactive: 0.277
CCCCCCC(C(C)O)n1cnc2c(=O)[nH]cnc21 (configuration not stated),inactive: -1.22,inactive: -0.343,inactive: -1.71
OC[C@@H](O)[C@@H](O)[C@H](O)[C@@H](O)CO [D-Sorbitol],inactive: 1.92,,inactive: 0.539
COc1cc(OC)cc(N2CCN(C(=O)Nc3nc4cc(F)ccc4nc3OC)CC2)c1,inactive: -1.22,inactive: 2.02,inactive: 1
NCc1c[nH]c(=S)n1[C@H]1CCc2c(F)cc(F)cc2C1 [Pharmaprojects No. 4698],inactive: -1.23,inactive: -1.46,inactive: 0.331
CS(=O)(=O)c1ccc2c(c1)N(CCCN1CCC(C(N)=O)CC1)c1ccccc1S2,inactive: -0.0361,inactive: -1.58,inactive: 0.636
CC(C)n1c(=O)c(C(=O)NCCCN2CCCCC2)c(O)c2ccsc21,inactive: -0.838,inactive: 1.76,inactive: 1.06
Cc1cc(OCC(=O)O)cc(C)c1Cc1ccc(O)c(C(C)C)c1 [sobetirome],inactive: -1.18,inactive: -1.36,inactive: 2.73
Cn1c(N2CCCCS2(=O)=O)nc(C(=O)NCc2ccc(F)cc2)c(O)c1=O,inactive: 0.812,inactive: -0.78,inactive: 0.0466
COCC1=C(C(=O)OC)[C@H](c2ccc(F)c(F)c2)N(C(=O)NCCCN2CCC(c3ccccn3)CC2)C(=O)N1,inactive: -2.2,inactive: 0.285,inactive: 1.96
C[C@@H]1CN(C[C@H](c2cccc(OC(F)(F)F)c2)C2(O)CCCCC2)C[C@H](C)N1,inactive: -0.512,inactive: -2.19,inactive: -0.963
O=C(Nc1ncc(SCCN2CCCC2)s1)[C@]1(c2ccc(S(=O)(=O)C3CC3)cc2)C[C@H]1C1CCCCC1,inactive: -0.708,inactive: -0.831,inactive: -0.557
CCOc1ccc(-n2c(N)nc3cc(C(F)(F)F)ccc32)cc1,inactive: -0.483,inactive: -0.302,inactive: 0.282
CNC(=O)NCc1ccccc1-c1ccc(CN2C(=O)C(NC(=O)C(C)(C)N)CCc3ccccc32)cc1 (configuration not stated),inactive: -0.64,inactive: 0.314,inactive: 1.24
CCNCC(O)COc1ccccc1C1CC2CCC1C2 (configuration not stated),inactive: -0.24,inactive: -0.126,inactive: -0.404
CCC(O)CC1CCC(C(C)C(=O)OC(C)CC2CCC(C(C)C(=O)O)O2)O1 (configuration not stated),inactive: -1.79,inactive: -1.54,inactive: 1.26
CC1(C)Oc2ccc(C#N)cc2[C@@H](OC2=CC(=O)CC2)[C@@H]1O,inactive: 0.116,inactive: 0.247,inactive: -0.201
COC(=O)C1=C(C)NC(C)=C(C(=O)OCC(C)=O)C1c1ccccc1[N+](=O)[O-] (configuration not stated),inactive: -0.609,inactive: -1.3,inactive: -0.627
